# Results published in US7687054B2, “Biocompatible compounds for sustained release pharmaceutical drug delivery systems” (3M Innovative Properties Company, priority 1997, dated 2010).
# For at least one compound, name, drawing or mass did not settle the structure.
# Assay: Glass transition temperature (Tg) by modulated DSC
# Assay type: physicochemical
# Details: PLA/Drug mole/mole ratio 0 (drug alone)
# Procedure: Thermal properties (glass transition, melting, and degradation points; Tg, Tm, Tdeg) were determined utilizing a modulated differential scanning calorimeter (DSC) TA Instruments, New Castle, Del. A linear heating rate of 5° C./minute was applied, with a perturbation amplitude of ±1° C. every 60 seconds. […] The glass transition temperatures (Tg) reported were taken at the midpoint in the change in heat capacity over the step transition, and were evaluated using the reversing signal curve.
# It will also be recognized that other biologically acceptable molecules (e.g., excipients) which are not the active agent, may be added to improve the matrix material's properties.
structure (smiles),measurement,value
CC1(C)O[C@@H]2C[C@H]3[C@@H]4CCC5=CC(=O)C=C[C@]5(C)[C@@]4(F)[C@@H](O)C[C@]3(C)[C@]2(C(=O)CO)O1 [Triamcinolone acetonide],Tg,none
